Results are given as percent effect. The controls that fix the scale are not given in the record; negative values are as filed. Compounds were drawn at random from those tested, without regard to their results. A dash means the value is not listed here; it may have been measured.

Chains of the proteins cited; added tags and fusions are not shown. Residues count along the entry.
UniProt P9WNZ1, whole entry: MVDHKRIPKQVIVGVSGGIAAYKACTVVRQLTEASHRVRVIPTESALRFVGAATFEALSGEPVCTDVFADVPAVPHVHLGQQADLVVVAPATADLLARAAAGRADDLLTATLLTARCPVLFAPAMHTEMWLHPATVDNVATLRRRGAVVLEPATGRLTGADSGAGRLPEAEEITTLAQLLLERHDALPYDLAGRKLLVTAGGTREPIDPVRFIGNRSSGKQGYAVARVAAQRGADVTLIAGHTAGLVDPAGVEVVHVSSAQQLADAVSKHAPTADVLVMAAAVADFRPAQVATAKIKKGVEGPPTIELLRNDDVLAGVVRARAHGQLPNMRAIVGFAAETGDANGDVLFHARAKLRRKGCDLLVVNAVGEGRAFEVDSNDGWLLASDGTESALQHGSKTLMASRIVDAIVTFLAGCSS
UniProt Q8IDJ8, 1-583: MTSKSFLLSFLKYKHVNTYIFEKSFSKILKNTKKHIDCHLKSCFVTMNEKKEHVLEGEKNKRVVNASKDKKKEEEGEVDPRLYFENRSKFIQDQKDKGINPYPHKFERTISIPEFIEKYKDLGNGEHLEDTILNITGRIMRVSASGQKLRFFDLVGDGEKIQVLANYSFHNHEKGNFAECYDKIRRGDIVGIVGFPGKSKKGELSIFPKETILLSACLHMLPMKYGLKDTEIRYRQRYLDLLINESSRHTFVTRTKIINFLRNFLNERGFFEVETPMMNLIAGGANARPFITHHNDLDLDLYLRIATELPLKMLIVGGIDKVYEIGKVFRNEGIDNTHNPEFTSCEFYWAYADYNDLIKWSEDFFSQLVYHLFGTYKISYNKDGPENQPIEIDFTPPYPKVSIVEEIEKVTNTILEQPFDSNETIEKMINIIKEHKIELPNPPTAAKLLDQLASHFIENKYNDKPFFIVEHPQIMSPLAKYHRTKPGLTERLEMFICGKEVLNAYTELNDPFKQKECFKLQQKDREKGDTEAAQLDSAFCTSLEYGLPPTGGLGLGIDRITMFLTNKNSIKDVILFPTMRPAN
UniProt A4I591, 1-473: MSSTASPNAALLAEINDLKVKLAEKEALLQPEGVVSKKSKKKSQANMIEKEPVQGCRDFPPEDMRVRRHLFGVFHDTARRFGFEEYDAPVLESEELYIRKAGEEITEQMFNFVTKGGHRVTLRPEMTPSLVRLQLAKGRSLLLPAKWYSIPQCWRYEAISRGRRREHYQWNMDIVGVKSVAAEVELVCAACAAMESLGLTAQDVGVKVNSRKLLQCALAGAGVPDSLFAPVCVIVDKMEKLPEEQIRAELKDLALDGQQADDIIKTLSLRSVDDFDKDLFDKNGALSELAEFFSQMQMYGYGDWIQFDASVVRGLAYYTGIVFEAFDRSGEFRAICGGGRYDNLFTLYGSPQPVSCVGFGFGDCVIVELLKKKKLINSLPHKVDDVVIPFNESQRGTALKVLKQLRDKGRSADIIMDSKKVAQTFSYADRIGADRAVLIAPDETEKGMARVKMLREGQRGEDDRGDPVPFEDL

A: 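Coenzyme A biosynthesis protein CoaBC, Mycobacterium tuberculosis (UniProt P9WNZ1). Enzyme assay of CoaBC with a phosphate dye (Biomol Green) read at 650 nm. Tested at 30 µM. Direction is inferred from only a few compounds that gave an IC50; most scored high, so higher reads as stronger inhibition. Most strong results did not repeat in a second test. Size under these conditions: about 67,000 compounds, about 40 of them at 50% or above in at least one test.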
B: 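Enzyme assay of the cytosolic lysyl-tRNA synthetase in 384-well plates, read by luminescence. Target: Lysine-tRNA ligase, Plasmodium falciparum 3D7 (UniProt Q8IDJ8). Concentration: 30 µM. Higher reads as stronger inhibition, judged from the few compounds that gave an IC50. Size under these conditions: about 69,000 compounds, about 49 of them at 50% or above in at least one test.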
C: 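Histidine-tRNA ligase, Leishmania infantum (UniProt A4I591). Enzyme assay of histidyl-tRNA synthetase; the read-out is not stated. Compounds at 30 µM. Higher reads as stronger inhibition (inferred: compounds with an IC50 in retests scored well above the rest). The assay is labelled LdHisRS but filed under L. infantum. Of about 69,000 compounds tested this way, about 410 (0.6%) reached 50% or more in at least one test.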

compound,A,B,C
O=C(C1CCCS1)N1CCOc2cccc(F)c21 (stereo unspecified),-0.7968,5.522,21.92
CN1CCC(N(C)CCC(=O)N2CCC(Cc3ccc(F)cc3)CC2)C1 (stereo unspecified),7.073,-5.148,41.67
COc1cccc(OC)c1C(=O)N1CCN(c2ccccc2F)CC1,2.225,-7.279,-5.714
Cn1cnc(-c2nc(C(=O)NCC3CCCO3)c3ccccn23)c1 (stereo unspecified),-1.724,5.442,20
c1nc(CCNc2nc(C3CC3)nc3c2CCNCC3)c[nH]1,-53.27,2.238,19.74
O=C(NCC1CCN(CCc2ccccc2)C1)c1c(F)cccc1F (stereo unspecified),-15.48,1.201,27.78
Cc1ncsc1C(=O)NCCNc1ncccn1,0.6519,-0.6879,4.386
CCc1ncc(C(=O)N(C)C2Cc3ccccc3C2)cn1,-0.9804,-0.3309,-4.444
CS(=O)(=O)NCc1cn2c(n1)CN(Cc1cccnc1)CC2,-5.569,-1.043,9.901
CC(=O)N1CCN(C(=O)C[C@@H]2C[C@@H](C(C)C)[C@H](CC#N)C=C2C)CC1,6.095,1.089,11.11
Oc1cccc2ccc(CN3CCC4(CCNCC4)C3)nc12,-33.87,6.344,39.47
NC(=O)C1CCCN(c2ccc(CNC(=O)c3csnn3)cc2)C1 (stereo unspecified),4.198,3.586,11.3
O=C(Nc1cnccn1)[C@@H]1C[C@H]2OCC[C@H]2N(c2ncc(F)cn2)C1,-,7.463,6.897
CNc1ncc(CN(C)Cc2cc(O)c3cccc(Cl)c3n2)cn1,1.208,6.326,17.17
CN(Cc1cnn(C)c1)C(=O)C(c1ccccc1)N1CCSCC1 (stereo unspecified),1.24,-1.876,8.036
Cn1ncc2c(NCCCOc3cccnc3)nc(C3CCCC3)nc21,9.333,0.8501,16.13
Cc1nc(COC[C@H]2CC[C@H]3[C@H](CCN3c3ncccn3)O2)cs1,2.596,-1.437,25
O=C1COc2ccc(C(=O)NS(=O)(=O)c3ccccc3F)cc2N1,2.999,-1.072,-4.386
CS(=O)(=O)c1ccc(CN2CCCCC2c2ccc(F)cc2)cc1 (stereo unspecified),-1.474,0.3458,-4.301
CCc1nccn1C1CCCN(C(=O)CCOCC(F)(F)F)C1 (stereo unspecified),1.535,2.015,-5.505
Cc1nc(C)c(C(=O)N2CCCC(n3ccnc3C)C2)s1 (stereo unspecified),-8.3,-4.658,-2.74
CS(=O)(=O)c1nnc(NC(=O)CCc2cccs2)[nH]1,7.662,7.11,18.42
CC(C)OCCN1CCC(Nc2ccc(C#N)cc2F)CC1,5.281,-0.1303,10.2
CS(=O)(=O)NCCCN1CCCC1Cc1ccccc1 (stereo unspecified),2.571,13.76,16.85
OC1CCN(CCCn2ccnc2-c2c[nH]cn2)CC1,-24.03,7.436,11.48
CC(OCC(F)(F)F)C(=O)N1CCOCC1 (stereo unspecified),7.81,-1.972,2.469
O=S(=O)(N1CCOCC1)N1CCOC(CCCc2ccccc2)C1 (stereo unspecified),3.913,-3.154,2.618
Cn1c(=O)oc2cc(Nc3nccnc3C#N)ccc21,-2.941,0.2363,8.889
CC1CCN(C(=O)CN2CCC(c3n[nH]c(C4CC4)n3)CC2)CC1,0.615,2.009,12.9
Cc1cc(CN2C[C@@H]3CN(C(=O)c4ccsc4)CCO[C@@H]3C2)no1,5.011,-1.087,10.53
O=C(Cc1ccccc1F)N1C[C@@H]2COC[C@]2(COc2cccnc2)C1,8.226,10.89,13.53
CCCOc1cc(C)ccc1NC(=O)N(C)Cc1cnn(C)c1,-3.376,1.913,7.895
O=C1CC2(CCSC2)C(=O)N1Cc1coc(-c2ccc(F)cc2)n1 (stereo unspecified),4.018,-0.1881,9.375
Cc1cc(C)c(Cn2cncn2)cc1CN1CCC(CN)C1 (stereo unspecified),-23.64,-2.155,12.5
CCc1ccc(C(NC(=O)CCS(C)(=O)=O)C(C)(C)C)o1 (stereo unspecified),4.762,10.18,2.679
Cc1noc(C)c1CN1CCCC1c1nc(-c2ccccc2)no1 (stereo unspecified),0.4,0.935,10.26
Cc1ncc(S(C)(=O)=O)c(C2CCCNC2)n1 (stereo unspecified),-3.509,4.946,11.43

Data taken from ChEMBL document CHEMBL3988442, “University of Dundee, Small-Polar-MMV Screening Library” (2021).